# Some of the results follow. Further columns of the screen follow, without active or inactive calls. The list favours compounds with an active or inconclusive main result. The note in brackets gives the kind of curve behind each potency; many fits are weak.
# Assay: IkB Signaling
# Settings: ABC-DLBCL IkBa-CBG/CBR dual luciferase ratio (green luciferase fused to IkBa over red control in OCI-Ly3 lymphoma cells), 4 h
# How it was run: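 Luminescence ratio of IκBα-fused green versus native red beetle luciferase in OCI-Ly3 cells, 4 h post-doxycycline with compound; red signal alone, scaled from basal (0%) to zero light (-100%), flagged nonspecific or cytotoxic effects.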
# [1] = measured here: control luc red channel unless noted
# [2] = measured here: IkB-luc green channel
# [3] = measured here: control luc red channel
compound,measurement,setting,value
CN(C(=O)Cn1c(=O)n(CCCS(=O)(=O)C2CCCCC2)c(=O)c2ccccc21)c1ccccc1,AC50,[1],"39.8 µM [falling, single point]"
COc1ccccc1-c1nc(S(=O)(=O)c2ccc(Cl)cc2)c(N2CCCCCC2)o1,AC50,[1],"5.01 µM [falling, partial curve, poor fit]"
CCOc1cc(C2C(C(=O)OC)=C(C)NC3=C2C(=O)c2ccccc23)ccc1O (stereo not given),AC50,[1],"25.1 µM [falling, single point]"
CCc1ccc(-c2nn(CC(=O)NC3CCCC3)c3c2cnc2ccc(C)cc23)cc1,AC50,[1],"6.31 µM [rising, single point]"
Cc1cccc(/C=C/c2onc(C)c2S(=O)(=O)N2CCC(C(=O)N3CCC(C)CC3)CC2)c1,AC50,[1],"6.31 µM [rising, partial curve, poor fit]"
Cc1cccc(C)c1OCC(=O)NCC1(N2CCOCC2)CCCCC1,AC50,[1],"15.8 µM [falling, single point]"
COc1ccc(OC(=O)c2nc(SCc3ccc(C)cc3)ncc2Cl)cc1,AC50,[1],"0.0794 µM [rising, full curve]"
CC1CCCN(c2csc3ccc(F)cc3c2=O)C1 (stereo not given),AC50,[1],"10 µM [falling, partial curve]"
CC1=Nc2ccccc2N=C(NC(=O)CSc2nnnn2-c2ccccc2)C1c1ccccc1 (stereo not given),AC50,[1],"15.8 µM [falling, partial curve]"
CCCOc1ccc(C(=O)Nc2cccc(-c3nc4ccccc4[nH]3)c2)cc1,AC50,[1],"12.6 µM [falling, partial curve]"
Cc1ccc(-c2nc(C)c(CCNC(=O)C(=O)Nc3ccc4c(c3)OCCO4)s2)cc1,AC50,[1],"0.794 µM [rising, full curve]"
CC(C)C(=O)NC(c1ccco1)c1ccc2cccnc2c1O (stereo not given),AC50,[1],"3.98 µM [falling, partial curve]"
CCOc1ccc(N(CC(=O)Nc2ccc(F)cc2F)S(=O)(=O)c2c(C)[nH]c(=O)[nH]c2=O)cc1,AC50,[1],"15.8 µM [falling, partial curve]"
CN1C(=O)c2ccccc2Sc2ccc(NC(=O)Nc3ccccc3F)cc21,AC50,[1],"7.94 µM [falling, partial curve]"
Fc1ccc(-c2cc3nc(-c4ccccc4)cc(N4CCOCC4)n3n2)cc1,AC50,[1],"12.6 µM [falling, partial curve]"
COc1ccc(CNC(=O)C(=O)NCC(c2cccs2)S(=O)(=O)c2ccc(F)cc2)cc1 (stereo not given),AC50,[1],"25.1 µM [falling, single point]"
CCOCCCn1c(=N)c(S(=O)(=O)c2ccc(C)cc2)cc2c(=O)n3cccc(C)c3nc21,AC50,[1],"0.398 µM [rising, full curve]"
COc1ccc(CN(CCC(c2ccc3c(c2)OCO3)c2ccccc2OC)C(C)=O)cc1 (stereo not given),AC50,[1],"25.1 µM [falling, single point]"
O=C(NCC(c1ccc2c(c1)OCO2)N1CCN(c2ccccc2)CC1)c1ccccc1F (stereo not given),AC50,[1],"39.8 µM [falling, single point]"
COc1ccccc1OCC(=O)N(Cc1nc(-c2ccc(Cl)cc2)no1)C(C)C,AC50,[1],"12.6 µM [falling, partial curve]"
CCOC(=O)c1ccc(OCC2c3cc(OC)c(OC)cc3CCN2C(=O)Cc2ccc(F)cc2)cc1 (stereo not given),AC50,[1],"39.8 µM [falling, single point]"
Nc1cc(OC(=O)c2ccccc2Br)nn1S(=O)(=O)c1ccccc1,AC50,[1],"15.8 µM [falling, partial curve]"
O=C(NCc1ccco1)c1cc(-c2ccco2)on1,AC50,[1],"12.6 µM [falling, partial curve]"
Cc1ccc(CN2C(=O)c3ccccc3C2C(=O)NC2CCCCCC2)cc1 (stereo not given),AC50,[1],"39.8 µM [falling, single point]"
O=C(Nc1cccc(C(=O)N2CCCCC2)c1)c1nsc2ccccc12,AC50,[1],"3.16 µM [rising, partial curve]"
Cc1cc(O)c(C(c2ccc(F)cc2)N2CCCCC2)c(=O)n1Cc1ccco1 (stereo not given),AC50,[1],"39.8 µM [falling, single point]"
CCc1ccc(-n2nc(C)c3c(C(=O)Nc4cccc(C(F)(F)F)c4)cc(C)nc32)cc1,AC50,[1],"31.6 µM [falling, single point]"
Cc1cc(Nc2cccc(C(F)(F)F)c2)nc2ccc(NC(=O)c3ccc(N(C)C)cc3)cc12,AC50,[1],"15.8 µM [falling, partial curve]"
CCOc1ccccc1NC(=O)c1c(C)cc(C)nc1SCC(=O)c1cccc(OC)c1,AC50,[1],"20 µM [falling, partial curve, poor fit]"
CCOC(=O)CSc1nnc(CNc2ccc(F)cc2)o1,AC50,[1],"10 µM [falling, partial curve]"
Cc1cccc(C)c1Nc1c(-c2ccsc2)nc2ccccn12,AC50,[1],"15.8 µM [falling, partial curve]"
Clc1ccc2c(c1)C1OCCC1C(c1ccco1)N2 (stereo not given),AC50,[2],"39.8 µM [falling, single point]"
same,AC50,[3],"20 µM [falling, partial curve]"
COc1ccc(OC)c(N=Cc2c(O)[nH]c3ccccc23)c1,AC50,[1],"0.158 µM [falling, full curve, poor fit]"
O=C(CN1CCN(c2ccc(Cl)cc2)CC1)Nc1ccc(F)cc1F,AC50,[1],"1.58 µM [falling, full curve]"
COC(=O)Cn1c(=O)c2c(nc3n2CCN3c2cccc(C)c2)n(C)c1=O,AC50,[1],"25.1 µM [falling, partial curve]"
COC(=O)c1ccc(C(=O)OC)c(NC(=O)CN2CCN(c3ccccc3OC)CC2)c1,AC50,[1],"31.6 µM [falling, partial curve]"
Nc1ccc(-c2cnc(-c3ccc(N)cc3)nc2)cc1,AC50,[1],"25.1 µM [falling, partial curve]"
COc1ccc2nc3sc(C(=O)Nc4ccccc4F)cc3cc2c1,AC50,[1],"25.1 µM [falling, partial curve]"
CCN(CC)S(=O)(=O)c1ccc(NC(=O)[C@H](CSCc2ccccc2)N2Cc3ccccc3C2=O)cc1,AC50,[1],"1 µM [rising, full curve]"
O=S(=O)(NCCc1ccccc1)c1ccc(N2CCCCS2(=O)=O)cc1,AC50,[1],"20 µM [falling, partial curve]"
O=c1cc(CN2CCN(S(=O)(=O)c3ccc(Cl)cc3)CC2)nc2sc(-c3ccccc3F)nn12,AC50,[1],"10 µM [falling, partial curve]"
Cc1cc(C)c(N2CCN(S(=O)(=O)N3CCCCCC3)CC2)c(C)c1,AC50,[1],"20 µM [falling, partial curve]"
CCOc1ccc(NS(=O)(=O)c2ccc3[nH]cc(C(=O)NCc4ccco4)c(=O)c3c2)cc1,AC50,[1],"10 µM [falling, partial curve]"
COc1ccc(C(=O)O)cc1Nc1nc2ccc(C)cc2n2cnnc12,AC50,[1],"2 µM [rising, partial curve, poor fit]"
Cc1ccc(C)c(N2CCN(c3nc4ccccc4c4nc(CCn5nc(C)cc5C)nn34)CC2)c1,AC50,[1],"39.8 µM [falling, single point]"
CCN(CC)S(=O)(=O)c1cccc(-c2nnc(SCC(=O)NCCC3=CCCCC3)n2N)c1,AC50,[1],"20 µM [falling, partial curve]"
O=C(Nc1ccccc1)c1ccccc1OCC(O)CN1C(=O)c2ccccc2S1(=O)=O (stereo not given),AC50,[1],"31.6 µM [falling, single point]"
CC1(C)C(=O)N(CC(=O)Nc2ccc(Cl)cc2)c2ccccc21,AC50,[1],"12.6 µM [falling, partial curve, poor fit]"
CCC(C)NC(=O)c1cc2c(Cl)nc3ccc(C)cc3c2s1 (stereo not given),AC50,[1],"0.126 µM [rising, full curve]"
O=C(NCc1cccs1)Nc1ccc2c(c1)OCO2,AC50,[1],"12.6 µM [falling, partial curve]"
COc1ccccc1-c1nnc(Nc2nc3c(OC)cccc3s2)o1,AC50,[2],"1 µM [rising, full curve]"
same,AC50,[3],"0.0158 µM [falling, full curve]"
CCc1nn2c(=O)cc(COC(=O)c3ccccc3NC(=O)COc3ccccc3C)nc2s1,AC50,[1],"0.794 µM [falling, full curve]"
COc1ccc(-c2nn3c(-c4ccc(OC)cc4)nnc3c3ccccc23)cc1,AC50,[1],"2.51 µM [rising, partial curve]"
Cc1ccc2c(c1)cc(C(=O)Nc1ccccc1C)n2C,AC50,[1],"1 µM [falling, full curve]"
c1ccc(OCc2nc3ccccc3[nH]2)cc1,AC50,[1],"20 µM [falling, single point]"
COc1cc(OC)cc(-c2nc3n(n2)C(c2ccccc2F)C(C(=O)Nc2cccnc2)=C(C)N3)c1 (stereo not given),AC50,[1],"10 µM [falling, partial curve]"
CCc1ccc(C2C(C(=O)Nc3ccccc3)=C(C)Nc3c(C(=O)Nc4ccc(C)cc4)cnn32)cc1 (stereo not given),AC50,[1],"3.98 µM [falling, full curve]"
CCOC(=O)Cn1c(=O)oc2cc(S(=O)(=O)N3CCN(c4ccc(Cl)cc4)CC3)ccc21,AC50,[1],"7.94 µM [falling, partial curve]"
CCN(CC)c1ccc2c(Cl)c(Br)c(=O)oc2c1,AC50,[2],"15.8 µM [falling, partial curve]"
same,AC50,[3],"3.16 µM [falling, full curve]"
Cc1cc(C)cc(NC(=O)C2CCCN(c3nnc(C)c4c(C)n(-c5ccccc5)nc34)C2)c1 (stereo not given),AC50,[1],"2.51 µM [falling, full curve]"
CCOC(=O)C1CCN(C(c2ccccc2)c2c(O)cc(C)n(Cc3ccco3)c2=O)CC1 (stereo not given),AC50,[1],"7.94 µM [falling, partial curve]"
O=C(Nc1ccc2c(c1)CCC2)C1CCN(c2c3c(nc4ncnn24)CCC3)CC1,AC50,[1],"25.1 µM [falling, partial curve]"

# 3 entries from above, with bars between the fields.
compound | measurement | setting | value
CCc1nn2c(=O)cc(COC(=O)c3ccccc3NC(=O)COc3ccccc3C)nc2s1 | AC50 | [1] | 0.794 µM [falling, full curve]
COc1ccc(-c2nn3c(-c4ccc(OC)cc4)nnc3c3ccccc23)cc1 | AC50 | [1] | 2.51 µM [rising, partial curve]
Cc1ccc2c(c1)cc(C(=O)Nc1ccccc1C)n2C | AC50 | [1] | 1 µM [falling, full curve]

# Reference: PubChem BioAssay AID445 (National Center for Advancing Translational Sciences (NCATS), 2006)
